This assay concerns L1210 leukemia ip in BDF1 mice, survival T/C. Nature of the assay: NCI In Vivo Anticancer Drug Screen. Data for tumor model L1210 Leukemia (intraperitoneal) in B6D2F1 (BDF1) mice. Particulars: T/C endpoint: mean survival time, higher T/C = longer survival.
The mark [1] stands for this setting: dose: 100.0 mg/kg/injection, schedule: Q01DX009 (ip), vehicle: saline.
Setting [2] is: dose: 200.0 mg/kg/injection, schedule: Q04DX003 (ip), vehicle: saline.
[3] abbreviates: dose: 400.0 mg/kg/injection, schedule: Q01DX009 (ip), vehicle: saline with Tween-80.
[4] abbreviates: dose: 400.0 mg/kg/injection, schedule: Q01DX001 (ip), vehicle: saline.

The list does not hold the whole screen: it gathers tests that were run many times, whatever their T/C, doses with no T/C, and many T/C values between a quarter and a half above the control. Further doses and runs are listed elsewhere. T/C is the treated group as % of the vehicle group. Some doses have a count of surviving animals in place of a T/C: the source files T/C as zero there, which appears to mark a toxic dose or a test without result, not a measured value. Some survivor counts are full or nearly so, which does not show that the dose was tolerated: the source hardly ever lists a survival T/C far under the control, and the zero likely stands for such cases as well. Survivors were counted at the toxicity check, usually on the fifth day, unless a day is given; later deaths do not show. Schedules are NCI's codes, taken here to give the interval after Q, in days (D) or hours (H), and the number of doses after X. Some schedules carry Z or #; the key to these is not given. Where survival is the endpoint, the PubChem record calls one and a half times the control and up active, and a quarter to a half above the control has no call in these data; cut-offs in other NCI protocols can differ.

Data on 20 molecules can be found in PubChem BioAssay AID248 (DTP/NCI, 2004).

Consider `CC(=O)c1ccc(NC(N)=S)cc1`, for which the survivor count is on record as 2 of 6 (dose: 160.0 mg/kg/injection, schedule: Q01DX009 (ip), vehicle: saline with Tween-80) and 0 of 6 (dose: 320.0 mg/kg/injection, schedule: Q01DX009 (ip), vehicle: saline with Tween-80).
Take `Cc1cc(C)c(CSC(=N)N)c(C)c1`: the survivor count (dose: 200.0 mg/kg/injection, schedule: Q04DX002 (ip), vehicle: Klucel (hydroxypropylcellulose) (HPC)) is reported as 2 of 3 and the survivor count (dose: 400.0 mg/kg/injection, schedule: Q04DX002 (ip), vehicle: Klucel (hydroxypropylcellulose) (HPC)) was 0 of 3.
As for `CCOC(=O)c1ccc(NCC(C)(C)[N+](=O)[O-])cc1`, the survivor count by setting is: under setting [1], 6 of 6; (dose: 200.0 mg/kg/injection, schedule: Q01DX009 (ip), vehicle: saline) 6 of 6.
For `CC(=O)NCCN`, the survivor count under setting [2] is reported as 6 of 6.
`COc1c2c(cc3c1C(Cl)N(C)CC3)OCO2` (centres undefined): the survivor count reads like this: under setting [1], 2 of 6; under setting [2], 3 of 6; (dose: 400.0 mg/kg/injection, schedule: Q04DX003 (ip), vehicle: saline) 0 of 6.
As for `O=C1OC(c2ccccc2)=C/C1=C/c1ccccc1O`, the survivor count under setting [3] is 3 of 6.
For the molecule `O[C@H](CN1CC1)[C@@H](O)CN1CC1`, the T/C is 127 % of control (dose: 0.1 mg/kg/injection, schedule: Q01DX010 (oral), vehicle: other); 142 % of control (dose: 0.2 mg/kg/injection, schedule: Q01DX010 (oral), vehicle: saline); 139 % of control (dose: 0.29 mg/kg/injection, schedule: Q01DX Z (oral), vehicle: saline); 142 % of control (dose: 0.4 mg/kg/injection, schedule: Q01DX010 (oral), vehicle: other); 132 % of control (dose: 1.0 mg/kg/injection, schedule: Q01DX Z (oral), vehicle: saline); 141 % of control (dose: 5.0 mg/kg/injection, schedule: Q01DX Z (ip), vehicle: methylcellulose (MC)). The survivor count runs as follows: (dose: 0.25 mg/kg/injection, schedule: Q01DX Z (ip), vehicle: methylcellulose (MC)) 9 of 10; (dose: 0.5 mg/kg/injection, schedule: Q01DX Z (ip), vehicle: methylcellulose (MC)) 0 of 10; (dose: 1.0 mg/kg/injection, schedule: Q01DX Z (ip), vehicle: methylcellulose (MC)) 0 of 10; (dose: 1.6 mg/kg/injection, schedule: Q01DX010 (oral), vehicle: other) 5 of 6; (dose: 1.6 mg/kg/injection, schedule: Q01DX010 (oral), vehicle: saline) 6 of 6; (dose: 2.25 mg/kg/injection, schedule: Q01DX Z (oral), vehicle: saline) 6 of 6. The survivor count is, setting by setting: (dose: 3.0 mg/kg/injection, schedule: Q01DX Z (oral), vehicle: saline) 6 of 6; (dose: 3.37 mg/kg/injection, schedule: Q01DX Z (oral), vehicle: saline) 6 of 6; (dose: 5.06 mg/kg/injection, schedule: Q01DX Z (oral), vehicle: saline) 6 of 6; (dose: 6.0 mg/kg/injection, schedule: Q01DX Z (oral), vehicle: saline) 5 of 6; (dose: 8.9 mg/kg/injection, schedule: Q01DX Z (oral), vehicle: saline) 3 of 6; (dose: 10.0 mg/kg/injection, schedule: Q01DX Z (ip), vehicle: methylcellulose (MC)) 1 of 10. Also, the survivor count reads like this: (dose: 13.3 mg/kg/injection, schedule: Q01DX Z (oral), vehicle: saline) 0 of 6; (dose: 16.0 mg/kg/injection, schedule: Q01DX Z (ip), vehicle: methylcellulose (MC)) 0 of 6; (dose: 20.0 mg/kg/injection, schedule: Q01DX Z (ip), vehicle: methylcellulose (MC)) 1 of 10; (dose: 20.0 mg/kg/injection, schedule: Q01DX Z (oral), vehicle: saline) 0 of 6; (dose: 25.0 mg/kg/injection, schedule: Q01DX Z (ip), vehicle: methylcellulose (MC)) 0 of 6; (dose: 30.0 mg/kg/injection, schedule: Q01DX Z (oral), vehicle: saline) 0 of 6. Besides, the survivor count (dose: 37.5 mg/kg/injection, schedule: Q01DX Z (ip), vehicle: methylcellulose (MC)) is given as 0 of 6.
As to `CCC(C)C(C1=C(O)c2ccccc2C(=O)C1=O)C1=C(O)c2ccccc2C(=O)C1=O` (centres undefined), the survivor count (dose: 300.0 mg/kg/injection, schedule: Q01DX001 (ip), vehicle: carboxymethylcellulose (CMC)) is recorded as 2 of 6.
`C=CCC(CC)C(=O)O` (centres undefined): the survivor count (dose: 400.0 mg/kg/injection, schedule: Q01DX009 (ip), vehicle: saline) is 1 of 6.
For `O=Cc1nccc2c1[nH]c1ccccc12`, the survivor count runs as follows: (dose: 200.0 mg/kg/injection, schedule: Q01DX009 (ip), vehicle: saline with Tween-80) 4 of 6; under setting [3], 3 of 6.
In the case of `CN(Cc1cnc2nc(N)nc(N)c2n1)c1ccc(C(=O)NC(CCC(=O)O)C(=O)O)c2ccccc12` (centres undefined), the T/C (dose: 1.0 mg/kg/injection, schedule: Q01DX009 (ip), vehicle: saline) was 132 % of control; the T/C (dose: 2.0 mg/kg/injection, schedule: Q01DX009 (ip), vehicle: saline) was 133 % of control; the T/C (dose: 16.0 mg/kg/injection, schedule: Q01DX009 (ip), vehicle: saline) was 135 % of control; the T/C (dose: 16.0 mg/kg/injection, schedule: Q04DX003 (ip), vehicle: saline) was 133 % of control; the T/C (dose: 32.0 mg/kg/injection, schedule: Q04DX003 (ip), vehicle: saline) was 133 % of control.
On to `C=CCc1cc(CNC(C)C)c(O)c(OC)c1`, for which the survivor count reads like this: (dose: 200.0 mg/kg/injection, schedule: Q04DX003 (ip), vehicle: Klucel (hydroxypropylcellulose) (HPC)) 0 of 6; (dose: 400.0 mg/kg/injection, schedule: Q04DX003 (ip), vehicle: Klucel (hydroxypropylcellulose) (HPC)) 1 of 6.
Turning to `Nc1cc(Cl)ccc1O`, the survivor count under setting [4] was 2 of 4.
For the molecule `Cc1ccc(S(=O)(=O)OC2CC(C(=O)O)N(S(=O)(=O)c3ccc(C)cc3)C2)cc1` (centres undefined), the survivor count under setting [3] was 6 of 6.
In the case of `CC(=O)NC1CCC(C(C)(C)C)CC1` (centres undefined), the survivor count under setting [3] is on record as 0 of 6.
`O=S1(=O)C=C(Cl)C(Cl)C1` (centres undefined): the survivor count is recorded as 5 of 6 under setting [1], 1 of 6 under setting [2] and 2 of 6 under setting [4].
Regarding `Oc1ccc2c(c1)CCCC2`, the survivor count (dose: 150.0 mg/kg/injection, schedule: Q04DX003 (ip), vehicle: saline) is listed as 0 of 6 and the survivor count (dose: 300.0 mg/kg/injection, schedule: Q04DX003 (ip), vehicle: saline) is recorded as 0 of 6.
As to `C=C1C(=O)OCC1C(=O)O` (centres undefined), the survivor count is 1 of 6 (dose: 150.0 mg/kg/injection, schedule: Q01DX001 (ip), vehicle: saline) and 0 of 6 (dose: 300.0 mg/kg/injection, schedule: Q01DX001 (ip), vehicle: saline).
With `CCCCCCCCOP(=O)(N1CC1C)N1CC1C` (centres undefined), the T/C by setting is: (dose: 50.0 mg/kg/injection, schedule: Q01DX009 (ip), vehicle: acetone) 148 % of control; (dose: 50.0 mg/kg/injection, schedule: Q01DX009 (ip), vehicle: saline) 125 % of control; (dose: 75.0 mg/kg/injection, schedule: Q01DX009 (ip), vehicle: saline) 136 % of control. Moreover, the survivor count reads like this: (dose: 100.0 mg/kg/injection, schedule: Q01DX009 (ip), vehicle: acetone) 0 of 6; (dose: 200.0 mg/kg/injection, schedule: Q01DX009 (ip), vehicle: acetone) 0 of 6; (dose: 400.0 mg/kg/injection, schedule: Q01DX001 (ip), vehicle: acetone) 0 of 6.
Take `NC(Cc1ccc(N(CCCl)Cc2ccccc2)cc1)C(=O)O` (centres undefined): under “dose: 50.0 mg/kg/injection, schedule: Q01DX009 (ip), vehicle: distilled water + Tween-80”, the survivor count was 10 of 10.
